The target in this assay is T1, ALCAM (Activated Leukocyte Cell Adhesion Molecule, CD166), the CD6 ligand, on Raji B cells (human) (UniProt Q13740).
T1 sequence (looked up): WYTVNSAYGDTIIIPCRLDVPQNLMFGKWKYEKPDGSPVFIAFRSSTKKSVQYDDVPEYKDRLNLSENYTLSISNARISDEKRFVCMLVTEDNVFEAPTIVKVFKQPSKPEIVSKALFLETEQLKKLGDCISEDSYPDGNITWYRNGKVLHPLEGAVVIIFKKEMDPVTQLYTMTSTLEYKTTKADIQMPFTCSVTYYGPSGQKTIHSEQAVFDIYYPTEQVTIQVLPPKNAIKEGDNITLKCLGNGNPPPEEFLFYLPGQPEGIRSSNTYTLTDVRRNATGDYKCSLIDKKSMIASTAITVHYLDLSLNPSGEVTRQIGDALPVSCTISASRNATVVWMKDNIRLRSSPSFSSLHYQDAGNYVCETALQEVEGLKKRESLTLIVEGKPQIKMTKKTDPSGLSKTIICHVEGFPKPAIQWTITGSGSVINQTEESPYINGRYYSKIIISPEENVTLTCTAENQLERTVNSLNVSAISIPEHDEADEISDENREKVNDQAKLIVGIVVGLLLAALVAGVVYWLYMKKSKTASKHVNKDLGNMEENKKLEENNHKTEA
As to the kind of experiment: flow cytometry, biotin-labeled protein on Raji cells, detected with streptavidin-Tricolor.

No constants are given. Whether binding was seen depends on the method and setting. Some binding calls cover weakened binding; strength is not graded here.

B1: rsCD6, recombinant soluble ectodomain of human CD6 (amino acids D25 to E384, immature protein numbering) (receptor, UniProt P30203 25-384, looked up)
chain: DQLNTSSAESELWEPGERLPVRLTNGSSSCSGTVEVRLEASWEPACGALWDSRAAEAVCRALGCGGAEAASQLAPPTPELPPPPAAGNTSVAANATLAGAPALLCSGAEWRLCEVVEHACRSDGRRARVTCAENRALRLVDGGGACAGRVEMLEHGEWGSVCDDTWDLEDAHVVCRQLGCGWAVQALPGLHFTPGRGPIHRDQVNCSGAEAYLWDCPGLPGQHYCGHKEDAGAVCSEHQSWRLTGGADRCEGQVEVHFRGVWNTVCDSEWYPSEAKVLCQSLGCGTAVERPKGLPHSLSGRMYYSCNGEELTLSNCSWRFNNSNLCSQSLAARVLCSASRSLHNLSTPEVPASVQTVTIE
notes: range 25-384; Used as unpurified serum-free culture supernatant to coat wells in the gp120 ELISA; also called recombinant soluble CD6; rCD6
Regarding B1, the binding entry is reported as “binds”.

B2: nsCD6, natural soluble CD6 affinity-purified from pooled human plasma (receptor, UniProt P30203 18-402, looked up)
chain: HPSPAPPDQLNTSSAESELWEPGERLPVRLTNGSSSCSGTVEVRLEASWEPACGALWDSRAAEAVCRALGCGGAEAASQLAPPTPELPPPPAAGNTSVAANATLAGAPALLCSGAEWRLCEVVEHACRSDGRRARVTCAENRALRLVDGGGACAGRVEMLEHGEWGSVCDDTWDLEDAHVVCRQLGCGWAVQALPGLHFTPGRGPIHRDQVNCSGAEAYLWDCPGLPGQHYCGHKEDAGAVCSEHQSWRLTGGADRCEGQVEVHFRGVWNTVCDSEWYPSEAKVLCQSLGCGTAVERPKGLPHSLSGRMYYSCNGEELTLSNCSWRFNNSNLCSQSLAARVLCSASRSLHNLSTPEVPASVQTVTIESSVTVKIENKESRELMLL
Turning to B2, the binding entry is given as “binds”.

Values taken from patent US20100105622A1 (UNIVERSIDAD DE BARCELONA, published 2010).
